Experimental data from patent US20210206877A1.
Residue numbers refer to the chain shown, from its start. These are yes or no findings as the source states them, for the method shown. Some results given as binding are weak or reduced against the parent protein; the word gives no strength.

Amino acid sequences for entries named in this document (tags omitted). A change or cut given only in a name is not applied to a line headed by its entry.
UniProt P56817: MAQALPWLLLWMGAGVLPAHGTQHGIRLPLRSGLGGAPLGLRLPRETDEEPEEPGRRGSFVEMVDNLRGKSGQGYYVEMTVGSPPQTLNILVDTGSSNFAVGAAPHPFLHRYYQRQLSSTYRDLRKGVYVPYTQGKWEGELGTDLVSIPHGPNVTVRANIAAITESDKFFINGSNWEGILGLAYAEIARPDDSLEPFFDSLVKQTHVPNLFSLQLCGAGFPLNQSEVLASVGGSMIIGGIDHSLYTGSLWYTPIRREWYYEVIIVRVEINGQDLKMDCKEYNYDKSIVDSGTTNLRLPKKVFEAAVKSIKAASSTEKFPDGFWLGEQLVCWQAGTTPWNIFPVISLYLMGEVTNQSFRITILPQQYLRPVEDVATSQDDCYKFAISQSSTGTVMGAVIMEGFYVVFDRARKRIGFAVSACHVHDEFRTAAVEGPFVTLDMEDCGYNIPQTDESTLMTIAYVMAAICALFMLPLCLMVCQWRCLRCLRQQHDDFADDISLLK

B1: affinity matured antibody 6266 variant 8, Fab (Fab, V domains shown)
VH: QVQLVQSGAEVKKPGSSVKVSCKASGGTLKGYGVSWVRQAPGQGLEWMGNIIPGFGTANYAQKFQGRVTITADESTSTAYMELSSLRSEDTAVYYCARGGGTKYGMLDVWGQGTMVTVSS
VL: EIVMTQSPATLSVSPGERATLSCRASQSVSSNLAWYQQKPGQAPRLLIYGASTRAYGIPARFSGSGSGTEFTLTISSLQSEDFAVYYCQQLILWPPRTFGGGTKVEIK
B2: affinity matured antibody 6266 variant 9, Fab (Fab, V domains shown)
VH: B1 VH
VL: B1 VL with T53K, Y56T
B3: affinity matured antibody 6266 variant 10, Fab (Fab, V domains shown)
VH: B1 VH with K30S, G99S
VL: B1 VL with T53K, Y56T
B4: affinity matured antibody 6266 variant 11, Fab (Fab, V domains shown)
VH: B1 VH with K30S, G99S
VL: B1 VL
B5: affinity matured antibody 6266 variant 12, Fab (Fab, V domains shown)
VH: B1 VH with K30N, G99S
VL: B1 VL with Y56T
B6: affinity matured antibody 6266 variant 13, Fab (Fab, V domains shown)
VH: B1 VH with K30S, V34M, G99S
VL: B1 VL with Y56T
B7: affinity matured antibody 6266 variant 14, Fab (Fab, V domains shown)
VH: B1 VH with K30S, T57V, G99S, Y104W
VL: B1 VL with Y56T
B8: affinity matured antibody 6266 variant 15, Fab (Fab, V domains shown)
VH: B1 VH with K30S, G99S, M106E
VL: B1 VL with Y56T
B9: affinity matured antibody 6266 variant 1, Fab (Fab, V domains shown)
VH: B1 VH with K30S, G31H, F55I, G99S
VL: B1 VL with Y56T
B10: affinity matured antibody 6266 variant 2, Fab (Fab, V domains shown)
VH: B1 VH with K30S, G31H, F55I, G99S
VL: B1 VL with T53K, Y56T, F83A
B11: affinity matured antibody 6266 variant 3, Fab (Fab, V domains shown)
VH: B1 VH with K30S, G31H, F55I, G99S
VL: B1 VL
B12: affinity matured antibody 6266 variant 4, Fab (Fab, V domains shown)
VH: B1 VH with K30S, G31H, F55I, G99S
VL: B1 VL with T53K, Y56T
B13: affinity matured antibody 6266 variant 5, Fab (Fab, V domains shown)
VH: B1 VH with K30S, G31H, F55I, G99S, K103Q
VL: B1 VL with T53K, Y56T, F83A
B14: affinity matured antibody 6266 variant 6, Fab (Fab, V domains shown)
VH: B1 VH with K30S, G31H, F55I, G99S, K103Q
VL: B1 VL with F83A
B15: affinity matured antibody 6266 variant 7, Fab (Fab, V domains shown)
VH: B1 VH with K30S, G31H, F55I, G99S, M106E
VL: B1 VL with F83A
B16: antibody 6266, Fab (reference of the affinity maturation SPR) (Fab, V domains shown)
VH: B1 VH with K30S, G99S
VL: B1 VL with Y56T

biological target: His-tagged BACE1 protein (Homo sapiens (Human)) (UniProt P56817); assay: SPR (BIAcore T200), single-cycle kinetics, His-tagged BACE1 captured by anti-His antibody, Fab injected

Binder | binding
B1 | binds
B2 | binds
B3 | binds
B4 | binds
B5 | binds
B6 | binds
B7 | binds
B8 | binds
B9 | binds
B10 | binds
B11 | binds
B12 | binds
B13 | binds
B14 | binds
B15 | binds

biological target: His-tagged BACE1 protein (Homo sapiens (Human)) (UniProt P56817); assay: SPR (BIAcore T200), single-cycle kinetics, His-tagged BACE1 captured by anti-His antibody, Fab injected; reference of the comparison

Binder | binding
B16 | binds
